The test system of the assay is P388 leukemia ip, CD2F1 mice, survival T/C. Kind of assay: NCI In Vivo Anticancer Drug Screen. Data for tumor model P388 Leukemia (intraperitoneal) in CD2F1 (CDF1) mice. The settings on record: T/C endpoint: median survival time, higher T/C = longer survival.
Setting [1] is: dose: 50.0 mg/kg/injection, schedule: Q01DX009 (ip), vehicle: saline with Tween-80.
The mark [2] stands for this setting: dose: 100.0 mg/kg/injection, schedule: Q01DX009 (ip), vehicle: saline with Tween-80.
The mark [3] stands for this setting: dose: 200.0 mg/kg/injection, schedule: Q01DX005 (ip), vehicle: saline with Tween-80.
[4] abbreviates: dose: 400.0 mg/kg/injection, schedule: Q01DX009 (ip), vehicle: saline.
[5] abbreviates: dose: 200.0 mg/kg/injection, schedule: Q01DX009 (ip), vehicle: saline with Tween-80.
Setting [6] is: dose: 100.0 mg/kg/injection, schedule: Q01DX005 (ip), vehicle: Klucel (hydroxypropylcellulose) (HPC).
The mark [7] stands for this setting: dose: 200.0 mg/kg/injection, schedule: Q01DX005 (ip), vehicle: Klucel (hydroxypropylcellulose) (HPC).

Structures are written as SMILES. The list shows only some results of the screen, not a fair sample: it is rich in T/C values a quarter to a half above the control, in often repeated tests (any T/C) and in doses without a T/C. Other doses and runs of a compound stand elsewhere. T/C gives the treated animals as a percentage of the vehicle group. Some entries give survivors of the animals treated and no T/C: the source holds a T/C of zero for them, seemingly a mark for toxic or unscored doses. Some survivor counts are full or nearly so, which does not show that the dose was tolerated: survival well below the control is almost never listed, so the zero probably covers shortened survival too. Counts of survivors are from the toxicity check (mostly the fifth day) where no day follows; animals may have died later. Schedules are NCI's codes, read here as Q, the interval in days (D) or hours (H), X, the number of doses. Some entries hold several experiments; the values are given in rising order. Marks such as (2×) count equal records among those shown. Where survival is the endpoint, the PubChem record calls one and a half times the control and up active, and a quarter to a half above the control has no call in these data; cut-offs in other NCI protocols can differ. Some T/C values carry the count of animals alive at the toxicity check (mostly the fifth day); where none is given, no animal had died by that day.

In PubChem BioAssay AID330 (DTP/NCI, 2004) one finds survivor count and T/C data, which are given here for 18 compounds.

Consider `O=C(CCN1CCCCC1)c1ccc(C(F)(F)F)cc1`, for which the survivor count (dose: 12.5 mg/kg/injection, schedule: Q01DX009 (ip), vehicle: saline with Tween-80) was 2 of 6; the survivor count (dose: 25.0 mg/kg/injection, schedule: Q01DX009 (ip), vehicle: saline with Tween-80) is recorded as 0 of 6; the survivor count under setting [1] was 0 of 6; the survivor count under setting [2] is reported as 0 of 6.

Take `COc1nc2cc3c(cc2n2cccc12)oc1ccccc13`: the survivor count under setting [3] is 3 of 6.

For `CCn1cc(C(=O)O)c(=O)c2ccc(C)nc21` (tested in a mixture with another compound), where the note is “dose: 400.0 mg/kg/injection, schedule: Q04DX002 (ip), vehicle: saline with Tween-80”, the survivor count is listed as 1 of 6.

In the case of `CCN(CC)CCOC(=O)c1c(C)cc(C)cc1C`, for the setting “dose: 200.0 mg/kg/injection, schedule: Q04DX003 (ip), vehicle: saline”, the survivor count is 4 of 6.

In the case of `CC[C@@H](C)[C@H]([C@H](CC(=O)N1CCC[C@@H]1[C@@H](OC)[C@H](C)C(=O)N[C@H](Cc1ccccc1)c1nccs1)OC)N(C)C(=O)[C@H](NC(=O)[C@@H](C(C)C)N(C)C)C(C)C`, the T/C runs as follows: (dose: 1.63 micrograms/kg/injection, schedule: Q01DX005 (ip), vehicle: saline + alcohol) 137 % of control; (dose: 3.25 micrograms/kg/injection, schedule: Q01DX005 (ip), vehicle: saline + alcohol) 146 % of control. For the same compound, the survivor count is given as 6 of 6 (dose: 13.0 micrograms/kg/injection, schedule: Q01DX005 (ip), vehicle: saline + alcohol); 1 of 6 (dose: 26.0 micrograms/kg/injection, schedule: Q01DX005 (ip), vehicle: saline + alcohol); 4 of 4 (dose: 27.0 micrograms/kg/injection, schedule: Q01DX009 (ip), vehicle: saline + alcohol); 4 of 4 (dose: 54.0 micrograms/kg/injection, schedule: Q01DX009 (ip), vehicle: saline + alcohol); 1 of 4 (dose: 108.0 micrograms/kg/injection, schedule: Q01DX009 (ip), vehicle: saline + alcohol).

For the compound `C/C=C(\C)C(=O)OC1C(C)C2(O)C(C=C(CO)CC3(O)C(=O)C(C)=CC32)C2C(C)(C)C12OC(=O)CCCCCCCCC` (centres undefined), for the setting “dose: 0.25 mg/kg/injection, schedule: Q01DX009 (ip), vehicle: saline + alcohol”, the T/C was 132 % of control [5 of 6 alive].

For `N#CC(C#N)=CN`, the survivor count (dose: 400.0 mg/kg/injection, schedule: Q01DX009 (ip), vehicle: saline with Tween-80) is reported as 5 of 6.

`c1ccc2c(c1)C1=NCCN1c1ccccc1-2`: the survivor count reads like this: (dose: 40.0 mg/kg/injection, schedule: Q01DX009 (ip), vehicle: saline) 6 of 6; (dose: 60.0 mg/kg/injection, schedule: Q01DX009 (ip), vehicle: saline with Tween-80) 3 of 6; (dose: 60.0 mg/kg/injection, schedule: Q01DX009 (ip), vehicle: saline) 2 of 6.

As for `CCCN(CCC)CC(O)c1cc2cc(C(F)(F)F)cc(C(F)(F)F)c2c2cc(Cl)c(Cl)cc12` (centres undefined), under setting [1], the survivor count is 6 of 6.

With `CCOC(=O)C(CNc1ccc(OCc2ccccc2)cc1)NC(=O)c1ccccc1` (centres undefined), under setting [4], the survivor count is given as 6 of 6.

As to `CC1COS(=O)(=O)C1` (centres undefined), the survivor count by setting is: (dose: 100.0 mg/kg/injection, schedule: Q01DX009 (ip), vehicle: saline) 0 of 6; (dose: 200.0 mg/kg/injection, schedule: Q01DX009 (ip), vehicle: saline) 0 of 6; under setting [4], 0 of 6.

In the case of `NC1CN2CCC1CC2` (centres undefined), under setting [4], the survivor count is reported as 0 of 6.

`CN(C)c1ccc2ccc(N(C)C)nc2c1`: the survivor count is 4 of 6 under setting [2] and 1 of 6 under setting [5].

Take `CC1(C)N=C(N)N=C(N)N1CCCCc1ccccc1`: the survivor count by setting is: (dose: 25.0 mg/kg/injection, schedule: Q01DX005 (ip), vehicle: Klucel (hydroxypropylcellulose) (HPC)) 2 of 6; (dose: 50.0 mg/kg/injection, schedule: Q01DX005 (ip), vehicle: Klucel (hydroxypropylcellulose) (HPC)) 0 of 6; under setting [6], 0 of 6; under setting [7], 0 of 6.

Take `COC(=O)n1sc(SC)nc1=N`: the survivor count under setting [6] was 0 of 6 and the survivor count under setting [7] is recorded as 0 of 6.

Turning to `NC(N)=N/N=C/c1nccc2ccccc12`, the survivor count is 0 of 6 (dose: 100.0 mg/kg/injection, schedule: Q01DX005 (ip), vehicle: saline with Tween-80); 0 of 6 (2×) and 1 of 6 under setting [3].

With `Nc1nc(N)c2cc(CNc3ccc(Cl)c(Cl)c3)ccc2n1`, the survivor count is given as 4 of 6 under setting [1], 0 of 6 under setting [2] and 0 of 6 under setting [5].

As to `O=C1c2ccccc2C(=O)c2c1cc1c(c2[N+](=O)[O-])OCO1`, the T/C (dose: 240.0 mg/kg/injection, schedule: Q01DX005 (ip), vehicle: saline with Tween-80) is 147 % of control.
